Data from PubChem BioAssay AID2685 (National Center for Advancing Translational Sciences (NCATS), 2010).
The other results are listed elsewhere or left out. These are further read-outs of the screen, such as a control signal, another cell line or another target. No call is given for them. Compounds called inactive in the main read-out are mostly missing here. The note in brackets gives the kind of curve behind each potency; many fits are weak.

Assay: qHTS Assay for Lipid Storage Modulators in Drosophila S3 Cells;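 as to cell number change: cells counted by Cell Tracker Red CMTPX staining in the red channel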
Settings: BODIPY lipid droplet fluorescence, 18-24 h; for cell number change: measured here: cell count max response, cells fed with added oleic acid
How it was run: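 Drosophila S3 cells loaded with oleic acid (400 uM, as added) and compounds at several concentrations; lipid droplets imaged by 488-nm laser-scanning cytometry, 500–530 nm intensity and object ratio to cell channel. Percent activity normalized to 20 uM Triacsin C.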

[1] = measured here: lipid fluorescence (Fed channel) AC50, cells fed with added oleic acid
[2] = measured here: cell number channel AC50, cells fed with added oleic acid

SMILES	cell number change	AC50 [1]	AC50 [2]
CCOC(=O)C1(CC2CC2)CCN(Cc2ccc(OC)cc2F)CC1	-5.35%	–	–
COc1ccc(N2CCN(C(=O)CCNC(=O)c3ccc(C(C)(C)C)cc3)CC2)cc1	–	6.51 µM [falling, partial curve, poor fit]	–
COCCNC(=O)c1ccccc1-c1nc(-c2ccccc2Cl)no1	27.6%	0.116 µM [rising, full curve, poor fit]	–
CC(C)n1c(N2CCN(C(=O)N3CCCCC3)CC2)nc2ccccc21	-23.8%	20.6 µM [falling, partial curve, poor fit]	–
C#CC1(O)CC(C)N(C)C(C)C1 (stereo not given)	-50%	2.59 µM [falling, full curve]	6.51 µM [falling, full curve]
Nn1c(SCC(=O)NC2CCCCC2)nnc1C1CC1	129%	–	–
O=C(COC(=O)C1=COCCO1)Nc1ccc(Oc2ccccc2)cc1	–	0.651 µM [falling, single point]	–
CCC1SC(=Nc2cccc(C)c2)NC1=O (stereo not given)	19%	6.51 µM [falling, single point]	–
COc1ccc(NC(=O)[C@@H](NC(=O)c2ccccc2F)C(C)C)cc1S(=O)(=O)N1CCOCC1	64.4%	29.1 µM [rising, single point]	–
COc1ccc(N2CC(NS(=O)(=O)c3ccc4ccccc4c3)CC2=O)cc1OC (stereo not given)	56.1%	18.4 µM [rising, partial curve]	9.2 µM [rising, partial curve]
CC1CCN(CC(=O)Nc2ccc(Br)cc2[N+](=O)[O-])CC1	49.2%	–	–
CCOc1cc2c(C#N)c(N3CCNCC3)nc(N)c2c(N)n1	-11.6%	–	–
CC(NC(=O)c1cccc2ccccc12)c1ccc2c(c1)CCCC2 (stereo not given)	-13.4%	13 µM [falling, partial curve, poor fit]	–
CN(CCCC(=O)NCc1ccco1)S(=O)(=O)c1ccccc1	7.81%	–	–
Cc1cc(C(=O)COc2ccc(F)cc2Br)c(C)n1C1CC1	111%	–	16.4 µM [rising, partial curve]
O=C(O)c1ccc(NC(=O)c2cn(-c3ccccc3)nc2-c2ccccc2)cc1	90.1%	–	–
C=CCN1C(=O)c2ccc(C(=O)N3CCN(S(=O)(=O)c4ccccc4Br)CC3)cc2C1=O	-31.6%	23.1 µM [falling, single point]	20.6 µM [falling, single point]
CCC1(C(=O)c2ccc(Cl)cc2)C2c3ccccc3OC(=O)C21C(=O)Nc1ccccc1 (stereo not given)	-43.6%	11.6 µM [falling, partial curve, poor fit]	25.9 µM [falling, partial curve]
Cc1ccc(S(=O)(=O)N2CCC(C(=O)Nc3ccncc3)CC2)cc1	-36.7%	–	6.51 µM [falling, partial curve]
Cc1ccc(/C=C(/C#N)C(=O)NC(C)c2ccccc2)o1 (stereo not given)	6.51%	0.92 µM [rising, full curve, poor fit]	–
Cc1ccc(S(=O)(=O)N(C)Cc2ccccc2)cc1C(=O)N1CCCCC1	-27.4%	20.6 µM [falling, single point]	–
CCN(Cc1ccc(OC)c(F)c1)C(=O)c1oc2ccccc2c1COC	14.1%	29.1 µM [falling, single point]	–

Among those listed so far, 2 contain a cyano group.
SMILES	cell number change	AC50 [1]	AC50 [2]
CCOc1cc2c(C#N)c(N3CCNCC3)nc(N)c2c(N)n1	-11.6%	–	–
Cc1ccc(/C=C(/C#N)C(=O)NC(C)c2ccccc2)o1 (stereo not given)	6.51%	0.92 µM [rising, full curve, poor fit]	–

Two of the compounds above, with each value named.
Cc1cc(C(=O)COc2ccc(F)cc2Br)c(C)n1C1CC1
  cell number change: 111%
  AC50 [2]: 16.4 µM [rising, partial curve]
C=CCN1C(=O)c2ccc(C(=O)N3CCN(S(=O)(=O)c4ccccc4Br)CC3)cc2C1=O
  cell number change: -31.6%
  AC50 [1]: 23.1 µM [falling, single point]
  AC50 [2]: 20.6 µM [falling, single point]

The results go on:

SMILES	cell number change	AC50 [1]	AC50 [2]
Cc1ccc(S(=O)(=O)Nc2c(C)nc3nc(C)[nH]n3c2=O)c(C)c1	-11.9%	8.2 µM [falling, single point]	–
CC(C)Cc1cc(C(=O)Nc2cc(C(F)(F)F)ccc2Cl)no1	28%	0.103 µM [rising, full curve, poor fit]	–
CCOC(=O)c1oc2ccccc2c1NC(=O)c1cccc(OC)c1	-23.8%	–	–
Cc1ccc(SCCC(=O)NCCSCc2ccco2)cc1	4.13%	0.794 µM [falling, full curve]	–
O=C(CSc1nnc(C2CC2)n1Cc1ccccc1)c1cc2ccccc2o1	16.6%	1.46 µM [rising, full curve]	0.00461 µM [falling, full curve, poor fit]
COc1ccc(OC)c(NC(=O)Nc2cccnc2)c1	5.49%	–	–
O=C(O)C1CSC(c2ccccc2Cl)N1C(=O)c1ccc(Cl)cc1 (stereo not given)	5.06%	29.1 µM [falling, single point]	–
COc1ccc2c(c1)CCCN2S(=O)(=O)c1ccc(Cl)cc1	-36.5%	10.3 µM [falling, partial curve]	32.6 µM [falling, single point]
Cc1ccc(C(=O)OCn2ncc(Cl)c(Cl)c2=O)cc1	-26.4%	6.51 µM [falling, single point]	–
CN(C)S(=O)(=O)c1ccc(N2CCCC2)c(C(=O)Nc2nc3ccc(F)cc3s2)c1	41.1%	–	14.6 µM [rising, single point]
Cc1ccc(C)c(NS(=O)(=O)c2ccccc2C)c1	-32.3%	–	9.2 µM [falling, partial curve, poor fit]
COC(=O)c1ccc(OC)c(CSc2nnc(COc3cccc(C)c3)o2)c1	21.3%	–	–
CCCCCCn1c(-c2cccs2)n[nH]c1=S	–	4.11 µM [rising, single point]	0.651 µM [rising, single point]
CN1C(C(=O)NCc2ccccc2)CC2Cn3c(nc4cc5ccccc5cc43)C21 (stereo not given)	11.7%	8.2 µM [rising, partial curve, poor fit]	–
CC(=O)N1CCc2cc(S(=O)(=O)CCC(=O)N3CCN(c4ccccc4F)CC3)ccc21	-21.6%	–	–
O=C(CN1CCN(Cc2ccccc2)CC1)Nc1cccc(Br)c1	33.3%	1.64 µM [rising, partial curve]	32.6 µM [rising, single point]
O=C1NC(=Nc2ccc(Cl)cc2)SC1Cc1cc(Cl)ccc1Cl (stereo not given)	23.4%	29.1 µM [rising, single point]	–
CN(C)S(=O)(=O)c1ccc(NC(=S)NC(=O)C2CCC2)cc1	-10.3%	0.631 µM [rising, single point]	–
Cc1cc(NC(=O)c2cccc(F)c2)ncc1NC(=O)c1ccco1	7.55%	2.06 µM [rising, full curve]	6.51 µM [rising, single point]
COC(=O)c1cccc(NC(=O)c2ccc3c(c2)C(=O)N(C(C)(C)C)C3=O)c1	-36.1%	6.51 µM [falling, single point]	11.6 µM [falling, partial curve]
CCOC(=O)c1ccc(NC(=O)c2ccccc2C)cc1	2.3%	23.1 µM [rising, single point]	–
CC(OC(=O)C1CC1C)C(=O)Nc1ncc(Cl)cc1Cl (stereo not given)	17.8%	–	–

SMILES	cell number change	AC50 [1]	AC50 [2]
C/C(O)=C(/N=O)C(=O)Nc1ccccc1	144%	–	14.6 µM [rising, partial curve]
Cc1csc(N/N=C/c2ccc(O)c([N+](=O)[O-])c2)n1	-103%	6.51 µM [falling, partial curve]	7.31 µM [falling, partial curve]
CCCC(O)(CCC)C(=O)NN(C(=O)CCl)c1cccc(C)c1	–	23.1 µM [falling, single point]	–
CCOc1ccc(NC(=O)CSc2nnc(Cc3cccn3C)n2-c2ccc(F)cc2)cc1	-3.97%	–	–
Cc1ccc(NC(=S)NCCSc2ccc(Cl)cc2)c(C)c1	4%	5.17 µM [rising, single point]	–
CC(=O)c1csc(-c2ccccc2)n1	-34.5%	0.082 µM [falling, partial curve, poor fit]	–
C=CCOc1cccc(NC(=O)c2ccccc2SC)c1	19.1%	1.3 µM [falling, single point]	–
CC(C)N1CCC2(CC1)N=C(c1ccc3c(c1)OCO3)CC(c1cc(Cl)ccc1O)N2 (stereo not given)	–	4.11 µM [rising, full curve]	–
O=C(CSc1nc(=O)n(CCN2CCOCC2)c2c1CCCC2)Nc1cccc([N+](=O)[O-])c1	1.53%	5.8 µM [falling, full curve, poor fit]	–
Cc1cc2oc(C(=O)NCc3ccccc3)cc(=O)c2cc1C	10.3%	6.51 µM [falling, single point]	–
CCOc1ccc(-c2nc(-c3ccc(OC)c(OC)c3)no2)cc1OCC	-162%	–	–
CCc1csc(CCNC(=O)C2CCC(=O)N(CCOC)C2)n1 (stereo not given)	15.3%	7.31 µM [rising, partial curve]	–
COc1ccccc1C(=O)Nc1cccc(S(=O)(=O)N2CCCC2)c1	-4.09%	0.0731 µM [rising, full curve, poor fit]	–
O=C(Nc1ccc(F)cc1)OCCN1CCN(Cc2ccccc2)CCC1=O	28.9%	29.1 µM [rising, single point]	–
Cc1ccsc1/C=C1\Oc2cc(OCC(=O)c3ccccc3)ccc2C1=O	-15.7%	0.58 µM [rising, full curve]	–
Cc1ccccc1C(C(=O)NC1CCCCC1)N(C(=O)CNC(=O)c1ccco1)c1cccnc1 (stereo not given)	-0.499%	–	–
COc1ccc(C(=O)CCC(=O)Nc2cccnc2)cc1OC	5.88%	29.1 µM [rising, single point]	–
COc1ccc(C(=O)CCNc2ccc(C)c(Cl)c2)cc1	9.4%	16.4 µM [rising, partial curve]	–
CCN(CC(=O)NC)S(=O)(=O)c1ccc(C)cc1	-0.135%	0.164 µM [falling, full curve, poor fit]	–
Cc1ccc(C)c(SCC(=O)OCC(=O)NCCNC(=O)COC(=O)CSc2cc(C)ccc2C)c1	-26.1%	–	1.84 µM [falling, full curve, poor fit]
